Reference: PubChem BioAssay AID2685 (National Center for Advancing Translational Sciences (NCATS), 2010)
Some of the results follow. Further columns of the screen follow, without active or inactive calls. Most of these compounds were active or inconclusive in the main read-out, so they are no random draw. Words in brackets tell the shape of the fitted curve; partial curves, single points and poor fits give uncertain potencies.

Assay: qHTS Assay for Lipid Storage Modulators in Drosophila S3 Cells;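 on cell number change: cells counted by Cell Tracker Red CMTPX staining in the red channel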
Conditions: BODIPY lipid droplet fluorescence, 18-24 h; for cell number change: measured here: cell count max response, cells fed with added oleic acid
How it was run: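 Drosophila S3 cells got compounds at several concentrations plus oleic acid (400 uM solution). Laser-scanning cytometry with 488 nm excitation read lipid droplets at 500-530 nm and cells at 575-640 nm. Percent activity was relative to 20 uM Triacsin C.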

[1] = measured here: cell number channel AC50, cells fed with added oleic acid
[2] = measured here: lipid fluorescence (Fed channel) AC50, cells fed with added oleic acid

| Structure (SMILES) | cell number change | AC50 [1] | AC50 [2] |
| --- | --- | --- | --- |
| CCC1(CC)NC(=O)N(CC(=O)OCc2nc3cc(C(=O)OC)ccc3c(=O)[nH]2)C1=O | -7.52% | 5.17 µM [falling, single point] |  |
| O=C(c1cc(-c2cccs2)on1)N1CCOCC1 | -1.29% |  | 4.61 µM [falling, full curve, poor fit] |
| Nc1nnnn1/N=C/c1cc(Cl)ccc1O | 5.41% | 2.91 µM [rising, partial curve] |  |
| CCOC(=O)c1ccc2[nH]c3c(c2c1)CCCC3NC=O (centres undefined) | 22.3% |  | 0.58 µM [falling, single point] |
| COc1ccccc1CCNC(=O)CCNS(=O)(=O)c1ccc(NC(C)=O)cc1 | 14.6% |  | 0.103 µM [falling, full curve, poor fit] |
| CC(C(=O)NCCN1CCOCC1)c1ccc([N+](=O)[O-])cc1 (centres undefined) | -0.455% | 4.61 µM [falling, single point] | 0.058 µM [falling, full curve, poor fit] |
| NC(=O)C1CCN(C(=O)Cc2ccsc2)CC1 | 29.7% |  |  |
| C=CCOc1c(Cl)cc(CNc2ccc(N(C)C)cc2)cc1OC | -56.4% | 25.9 µM [falling, partial curve] | 23.1 µM [falling, single point] |
| COc1ccc(C(=O)NC(=C(Cl)Cl)S(=O)(=O)c2ccc(C)cc2)cc1 | -6.9% |  | 8.2 µM [falling, partial curve, poor fit] |
| COc1ccc(/C=C2\CCC(C3CCCC3)C2=O)c(OC)c1 (centres undefined) | -18.4% |  | 29.1 µM [falling, single point] |
| CCC1C(=NO)C(CC)C(c2ccccc2)NC1c1ccccc1 (centres undefined) | -41.5% | 23.1 µM [falling, single point] | 18.4 µM [falling, single point] |
| COc1ccc(NC(=O)c2ccco2)cc1NC(=O)c1c(F)c(F)c(OC)c(F)c1F | 49% | 3.26 µM [rising, full curve] | 29.1 µM [rising, single point] |
| CCN(c1ccccc1)S(=O)(=O)c1ccc(OCC(=O)Nc2cc(C)on2)cc1 | 51% | 4.11 µM [rising, full curve] |  |
| COC(=O)C(C(=O)OC)c1ccccc1[N+](=O)[O-] | -13.9% |  | 2.31 µM [falling, full curve, poor fit] |
| O=C1CC(NC(=O)C(F)(F)F)c2cc3c(cc21)OCO3 (centres undefined) | -29.9% |  |  |
| CCCC(=O)NC1=C(C#N)C2(CCCCC2)Cc2ccccc21 | -6.59% |  |  |
| Cc1cc(NC(=O)CCC(=O)N(CC(=O)NCC2CCCO2)c2cccc(C)c2C)no1 (centres undefined) | 12.5% |  | 1.16 µM [falling, single point] |
| O=C(NNC(=O)C1CC1)c1ccc(-c2ccccc2)cc1 | 56.4% | 9.2 µM [rising, partial curve, poor fit] | 4.61 µM [falling, single point] |
| CC(C)Oc1ccc(N2C(=O)c3ccccc3C2=O)cc1 |  |  | 5.17 µM [falling, partial curve] |
| O=C(NCc1ccco1)c1ccccc1-c1ccccc1 |  | 0.146 µM [falling, full curve] |  |
| COCc1[nH][nH]c(=O)c1/C=N/N1CCOCC1 | -17.8% |  |  |

| Structure (SMILES) | cell number change | AC50 [1] | AC50 [2] |
| --- | --- | --- | --- |
| C/C(Nc1ccccc1)=C(/C#N)C(N)=O | 32.1% | 29.1 µM [rising, single point] |  |
| O=C(CN(CC1CCCO1)C(=O)CNS(=O)(=O)c1ccc(F)cc1)NCC1CCCO1 (centres undefined) | 7.69% |  | 0.103 µM [rising, partial curve, poor fit] |
| COc1ccc(NS(=O)(=O)/C=C/c2ccccc2)cc1 | -9.26% |  |  |
| CC1=C(C(=O)NCCCOC(C)C)C2(CCC(C)CC2)OC1=O (centres undefined) | -10.4% |  | 10.3 µM [falling, partial curve] |
| Cc1noc(C(=O)N2CCN(c3ccccc3)CC2)c1Cl | -5.19% |  | 0.58 µM [rising, full curve, poor fit] |
| CCOc1ccc(NCc2nnc(SCC(=O)Nc3cc(C)on3)n2-c2ccc(OC)cc2)cc1 | 26.3% | 0.366 µM [rising, partial curve, poor fit] |  |
| O=C(COc1ccc(F)cc1Br)N1CCc2ccccc21 | -55.9% | 3.66 µM [falling, partial curve] | 1.84 µM [falling, partial curve] |
| COc1cccc(-c2cc(C(=O)Nc3cc(C)nn3-c3ccccc3)no2)c1 | 20.3% | 0.00411 µM [rising, full curve, poor fit] |  |
| CCC(=O)N(Cc1ccco1)C1CC(=O)N(c2ccccc2)C1=O (centres undefined) | -0.355% |  | 0.411 µM [falling, full curve, poor fit] |
| CCOc1cc(-c2cc(-c3ccccc3)nc(N)c2C#N)ccc1O | -35.5% | 29.1 µM [falling, single point] |  |
| O=C(CCc1ccc(S(=O)(=O)N2CCOCC2)cc1)Nc1nc(COc2ccccc2)cs1 | -16.5% | 0.231 µM [falling, full curve, poor fit] |  |
| CN(CC(=O)Nc1ccc(F)cc1)C(=O)C1CCN(C(=O)Nc2ccccc2)CC1 | -1.93% |  | 0.0259 µM [falling, full curve, poor fit] |
| CC(O)CNc1nc2c(c(=O)n(Cc3ccc(Br)cc3)c(=O)n2C)n1C (centres undefined) | -33.4% | 25.9 µM [falling, single point] |  |
| CCOC(=O)C1(C(F)(F)F)N=C(C(F)(F)F)Nc2ccccc21 (centres undefined) | 28.6% |  | 6.51 µM [rising, single point] |
| Cc1ccc(C)c(S(=O)(=O)Nc2ccc(C(N)=O)cc2)c1 | 15.6% |  | 5.17 µM [rising, single point] |
| O=C(NCC(Cl)c1ccc2ccccc2c1)c1c(F)cccc1F (centres undefined) | -28.3% |  | 0.092 µM [falling, partial curve, poor fit] |
| COc1ccccc1-n1c(C)nc2cc(C(=O)NCc3ccc4c(c3)OCO4)ccc21 | -15.3% |  | 0.651 µM [falling, full curve, poor fit] |
| COc1cccc(C(=O)NCCCNC(=O)c2cccc(OC)c2)c1 | 7.3% |  | 0.58 µM [rising, single point] |
| CCOc1cccc(CN2CCC(n3nccc3NC(=O)C3CCCC3)CC2)c1 | 28.4% |  |  |
| COc1ccc(/C=N/Nc2cn[nH]c(=O)c2Cl)cc1 | -8.08% | 0.731 µM [falling, single point] |  |
| O=C(OCC(=O)N1CCc2ccccc2C1)c1ccc(OC(F)F)cc1 | 2.84% |  | 0.058 µM [falling, full curve, poor fit] |

Copied from the listing for reference:

| Structure (SMILES) | cell number change | AC50 [1] | AC50 [2] |
| --- | --- | --- | --- |
| Cc1ccc(C)c(S(=O)(=O)Nc2ccc(C(N)=O)cc2)c1 | 15.6% |  | 5.17 µM [rising, single point] |
| O=C(NCC(Cl)c1ccc2ccccc2c1)c1c(F)cccc1F (centres undefined) | -28.3% |  | 0.092 µM [falling, partial curve, poor fit] |
| COc1ccccc1-n1c(C)nc2cc(C(=O)NCc3ccc4c(c3)OCO4)ccc21 | -15.3% |  | 0.651 µM [falling, full curve, poor fit] |

(further entries)

| Structure (SMILES) | cell number change | AC50 [1] | AC50 [2] |
| --- | --- | --- | --- |
| COc1ccc(-c2cc(C(=O)NCc3cccnc3)no2)cc1 | 18.8% |  | 16.4 µM [rising, single point] |
| O=C(COc1ccc2ccccc2c1)Nc1cccc(C(=O)Nc2ccccc2C(=O)O)c1 | 2.82% |  | 0.731 µM [rising, full curve, poor fit] |
| Cc1nn(C/C(C#N)=N\O)c(C)[n+]1N | -36.3% |  | 5.17 µM [falling, full curve] |
| COc1ccc(-c2cc3c(=O)n(CC(=O)NCc4ccc(C)cc4)ncn3n2)cc1 | 15.9% |  | 20.6 µM [rising, single point] |
| C=CCN(CC=C)C(=O)c1c(OC)cccc1OC | -6.82% |  | 1.03 µM [falling, full curve, poor fit] |
| Cc1cc(/C=C2/C(=O)N(C)C(=S)N2C)ccc1N1CCCC1 |  |  | 3.98 µM [falling, full curve] |
| Cc1c(C(=O)N2CCCCC2)nn(-c2ccc(Cl)cc2)c(=O)c1C#N | -4.3% | 0.13 µM [rising, full curve, poor fit] | 0.13 µM [rising, full curve, poor fit] |
| O=S(=O)(/N=C(\Sc1ccccc1)c1ccccc1)c1ccc(Cl)cc1 | 20.4% |  |  |
| CCOC(=O)NC(=O)/C(N=Nc1cccc(C(F)(F)F)c1)=C(\C)O | 1.33% | 0.259 µM [falling, partial curve] | 0.146 µM [falling, full curve] |
| O=C(COC(=O)Cc1ccc(Cl)cc1)Nc1c(F)cccc1F | -36% | 0.411 µM [falling, full curve, poor fit] |  |
| CC(C)Oc1ccc(C(=O)N(CN2CCCC2=O)c2ccc(F)cc2)cc1 | 39.7% | 25.9 µM [rising, single point] |  |
| Cc1ncc([N+](=O)[O-])n1Cc1ccc(F)cc1 | 39.7% | 32.6 µM [rising, single point] | 2.91 µM [falling, single point] |
| COc1ccc(CCNC(=O)COc2ccc(S(=O)(=O)NCC(C)C)cc2Cl)cc1OC | -12.4% |  | 10.3 µM [falling, partial curve] |
| CN1CCN(C(=O)CSc2nc(-c3cccs3)cc(-c3cccs3)c2C#N)CC1 | -24% |  | 16.4 µM [falling, single point] |
| Cc1cn([C@@H](CCCCN)C(=O)NCCCCCCCCCCC(=O)N2CCNCC2)nn1 | -2.4% |  |  |
| COc1ccccc1/C=C/C(=O)Nc1cccnc1 |  |  | 0.206 µM [falling, full curve, poor fit] |
| O=C(CN1CCN(C(=O)C2CCCO2)CC1)Nc1c(Cl)cccc1Cl (centres undefined) | -15.3% | 2.91 µM [rising, single point] |  |
| O=C(c1cccc(Br)c1)N1CCCC1 | 20.1% |  | 2.31 µM [rising, full curve, poor fit] |
| COc1cccc(CNC(=O)CCS(=O)(=O)Cc2ccc(C)cc2)c1 | 9.73% |  | 6.51 µM [falling, single point] |
